The record followed here is PMC7042691.

T1: GFP::PfK13 (Plasmodium falciparum Kelch 13 protein, N-terminally tagged with 2xFKBP-GFP-2xFKBP) (Plasmodium falciparum) (UniProt Q8IDQ2)
T1 sequence: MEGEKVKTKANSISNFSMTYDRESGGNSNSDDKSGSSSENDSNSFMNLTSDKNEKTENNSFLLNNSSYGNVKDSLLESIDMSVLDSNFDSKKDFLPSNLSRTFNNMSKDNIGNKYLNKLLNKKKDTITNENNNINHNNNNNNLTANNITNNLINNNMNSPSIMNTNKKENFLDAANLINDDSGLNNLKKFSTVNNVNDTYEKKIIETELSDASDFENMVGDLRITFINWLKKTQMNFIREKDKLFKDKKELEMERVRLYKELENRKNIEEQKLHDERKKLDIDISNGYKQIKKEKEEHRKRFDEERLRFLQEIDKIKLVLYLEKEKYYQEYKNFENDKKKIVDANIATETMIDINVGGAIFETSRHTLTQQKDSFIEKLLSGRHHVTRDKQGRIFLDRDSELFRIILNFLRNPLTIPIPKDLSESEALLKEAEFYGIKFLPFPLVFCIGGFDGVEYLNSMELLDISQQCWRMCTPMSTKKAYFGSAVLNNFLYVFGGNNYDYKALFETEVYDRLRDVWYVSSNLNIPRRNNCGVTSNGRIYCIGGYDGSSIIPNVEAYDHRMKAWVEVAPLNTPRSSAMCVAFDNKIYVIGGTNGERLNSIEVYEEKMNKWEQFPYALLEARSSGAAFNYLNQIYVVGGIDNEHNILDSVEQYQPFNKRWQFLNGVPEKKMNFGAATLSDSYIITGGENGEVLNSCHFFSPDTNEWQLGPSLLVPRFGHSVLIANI

B1: 26S protease regulatory subunit 6B (protein, UniProt Q8I1V1 1-392)
chain: MESVSKCLTEEDYYIRLKNLKKQIDILNIQEDYIKEEHKNLKRELIRSKNEIKRIQSVPLIIGQFLDIIDNNYGIVSSTAGSNYYVRILSTLNKEDLKPSVSVALHRHSHSIVNILPSESDSSIQLLQITERPNVKYTDLGGLDMQKQEMKEAVELPLTCPELYEKIGIEPPMGILIYGPPGTGKTMLVKAVANETQVTFIGVVGSEFVQKYLGEGPRMVRDVFRLARENSPSIIFIDEVDAIATKRFDAQTGADREVQRILLELLNQMDGFDKSTNVKVIMATNRADTLDPALLRPGRLDRKIEFPLPDRKQKRLIFQTIISKMNVSSDVNIESFVVRTDKISAADIAAIAQEAGMQAIRKNRYIITANDFEQGYRTHVRKQLRDYEFYNI
B2: 60S ribosomal protein L12 (protein, UniProt Q8I3T8 1-165)
chain: MAKKPDPNEIKYVFIRQVGGEVGASSVLSPKLGPLGLSPKKVGDDIAKETQSWKGLKICVKLTIQNRQAKVEVVPTSAALILKELNEAPRDRKKVKNIKHNGNLKLEQVYSIARVMKEKSRAKEFKGTVKEMLGTCNSIGCTVDGKKPTTIQEMIDSGEIDVPLE
B3: High-molecular-weight rhoptry protein 2 (protein, UniProt C0H571 20-1378)
chain: LELNEKVSIKYGAEQGVGSADSNTKLCSDILKYLYMDEYLSEGDKATFEKKCHNVIGNIRNTFSNKNTIKEGNEFLMSILHMKSLYGNNNNNNAGSESDVTLKSLYLSLKGSQNTEGESEVPSDDEINKTIMNFVKFNKYLLDNSNDIKKVHDFLVLTSQSNENLLPNKEKLFEQIVDQIKYFDEYFFASGGKIKVKKGYLKYNFLDIYKQPVCSAYLHLCSRYYESVSIYIRLKKVFNGIPAFLDKNCRKVKGEEFKKLMDMELKHNHIVERFDKYIISDDLYYVNMKVFDLKNVDKIQVSKIDDINNLNIYEHKETMHLSAKNLSRYIDIKKELNDEKAYKQLMSAIRKYVTTLTKADSDITYFVKQLDDEEIERFLIDLNFFLYNGFLRITEDKHLINADDVSPSYINLYRSNNIVALYILKTQYEENKLSEYRAHKFYRRKRVSNITNDMIKKDFTQTNALTNLPNLDNKKTTEYYLKEYENFVENFQPDLHDIMKLQLFFTMAFKDCNVNQNFTETSKKLWFDLLYAYDKFGWFYIHPNEVINSINKTDFVRHVLVSRNFLLKNNDQLTFLETQVAKIVEIINLSLEVDKSPDSLDFSIPMNFFNHKNGYHVMNDDKLKLLTSYEYIDSIANNYFFLSEYKNDVFRTGNNFKLYFNLPNIYSLAYQLFNELAININVITNVPLKKYLKYNASYAYFTLMNMIGKNHDIYSKGSRFVYASYILGLVFFIESHIDIARLKPKDFFFMKQSLPIIDHVYHKDLKTLKKNCTLLTDFMKINKNSQNYSLTHTEEMIKILGLLTVTLWAKEGKKSVYYDDDVSLYRKLMVSCVFNGGETIQEKLANNIEKSCDISQYGIKSKNLKDMIDINLSIHKWNPAEIEKLAYSFVLSCKMQKLMYKPMNVEKLPLEDYYKLSLAPDMVKTYHCYKLGKQAAELLESIILKKKFVRFRVTDAIDVYDFFYIKKVLSSRIKKEYNEFLQDKRAFEKKELETILNNSPFSEEQTMKLINSYECHWFTSYENFRILWMHASSNLGTGTYLKNFFSELWQNIRFLFKSKLKIRDMEYFSGDISQMNLLDYYSPMVHSESHCQEKMQVLFITLRDSKEENRSEIAQKVKSAYYQCKLDYYKNHHSDFIHRIHPNDFLNNKVYVLKQPYYLMSNVPLNNPKKVSRLFVTEGTLEYLLLDKINIPECFGPCTKLHFNKVVIKESKQRIYDMTINNALVPEIQPYNRRKYMTIYINEAYIKNIVSDALTSEEIKRHDIQKGNIKICMGKSTYLTEPILTEEHFNLTHKPVYDFSSVKHNLKVFHMKNEHLVSEDPNDDCFINYPLATINLDISDPYKEISEDLIKNLYILKSS
B4: 40S ribosomal protein S16 (protein, UniProt Q8IAX5 1-144)
chain: MTTKVKRVQTFGKKKTAVAVATVTNGKGLIKLNGKNLDLVEPYILKTKVYEPLWLIGSGKLKNLDIRIRVKGGGQTSQIYAIRQAIGKGIISYYQKYVDESTKKELKDVLLRYDRSLLVGDTRRCEPKKFGGKGARARYQKSYR
B5: Acyl coenzyme A synthetase (protein, UniProt Q8I3L4 1-673)
chain: MDNGNNEILYSVKISEPRDKNSTGIYRHPEYKDKLCENFDDKKFNNMWEVFDRVSTKFKERDCMGVREKLEDNKRGAYQWKNFGEVKELIMKVGSGLLNMNACPLIMCDDQRIPKARFLGLYMPNCPEWNICDLGCNAYNIITVPLYDSLGPQSSRFILDQTQMETIVCDKTCARNLFKSLETCEEIYLKTLILVDEIDDEIKKECSKYNLKIILWEELIKQGEKKIVKVPQGALNNIFSICYTSGTTGYPKGVIMTNRNFIGILAAAYIGPSRLPDLCINENDIHISYLPLAHIYERLMIYLFMAHGVKVGYYSGNVQTLLEDIQELKPTLFISVPRLYNRIHERIFNSLKKKSGLVQSLFNKGLQNKIKRLSSSGSTTHVLWDKLLFNKAKKILGGHVRAMLNGSAPISVDVVKKLRTIFCVPMFEGYGMTESLGASFITHSQDRNIGHIGGPVPCIEFKLVSVPEMNYLVTDNPPKGELYLRGPSTCNLGYFKLEKETNELLEKDGFIRTGDIALLSPNGSLTIIDRKKNIFKLAQGEYVAVEKVEASYKQSLFISQIFVFGYSYESVLVCVICPSTDSIDIWRTQKKIKATDEEVIKLPEFKADVINDLTSIGKKDGLKGFEQIKDIHFTLEAFTIENDLMTPTGKIKRHEAKKRFKKEIDEMYEKLKQ
B6: 40S ribosomal protein S19 (protein, UniProt Q8IFP2 1-170)
chain: MAEQFTEDIGVVNKRLLEPVPFVKTNNCIKDVDADLFIRSYATHLKLHNKITYPKWCTFVKTGKGRKLAPLNEDWYFIRASSILRRLYLHPDIGVGFLRRQFSSKQRRGVAPNHTSLASGKILRSILQQLENLGYVEQNPKKKGRRLTTKGENAINNFARYINKKVYNKE
B7: 40S ribosomal protein S3a (protein, UniProt O97313 1-262)
chain: MAVGKNKRTSKGKKGGKKKVTDVFTKKEWYDLKAPKMFLVRNFGKTLVTKTIGKKLATDSLKGRIYEVNLADLNNDEDQAHKKIKLSCDHIINRDCYTDFCGLSITRDKLCSLIRKGYTLIEGHTDVKTLDNYHLRMFCIAFTKKRQNQTKSTCYAQTSQIKKIRKKMVDIMTAEASKVLLKDLVKKFIPESIGKEIEKQCKKIYPLQNVLIRKVKILKRPKLDISKLMELHTDPKEESGKNVNALPESKEATNILTAELKH
B8: S-Adenosylmethionine synthase (protein, UniProt Q7K6A4 1-402)
chain: MSQLKIKRGNFLFTSESVNEGHPDKICDQISDAILDSCLREDPYSKVACEVCAKKNYIFIFGEITTKAKVNYDKVTRDVLKHIGYDDESKGLDYKTAEIKVSIDEQSPDIAQCVHENRSPELIGAGDQGIMFGYATDETENYMPLTHHYATLLGKRLTEVRKLGILPYLGPDGKTQITIEYKNKGSCGGHLEPLRVHTVLISTQHAEDIKYEQLKTDLMENVIKYVIPEKLLDNETLYYLNPSGKFVLGGPAADAGLTGRKIICDTYGGWGAHGGGAFSGKDASKVDRSAAYYLRFIAKSLVANKFCRRVLVQASYSIGIANPISLNVNSYGTVSTGYTDYDLEQIILRNFDLRPGFIIQELKLTEPVFSKTSAYGHFGREGDTFTWEKIKDLSHEKNALKN
B9: Protein DJ-1 (protein, UniProt C6KTB1 1-189)
chain: MSGKKTALVAVASGSEDVEYITVVDVLRRAGVHVTTASVEKSEQVCLQSKNVVLADTTISKVRNNIYDVLVIPGGMKGSNTISECSEFIDMLKEQKANNRLYAAICAAPETVLDRHSLIDDVEAVAYPSFERNFKHIGKGRVCVSKNCITSVGPGSAVEFGLKIVEHLLGRQVALSLASGFLLHPAVTF
B10: T-complex protein 1 subunit gamma (protein, UniProt Q8I5C4 1-542)
chain: MLKNPGTVLVFKPNTKREEGRKTQLSNIQASRAVSDIVKTTLGPMAMLKMMLDPLGGIVITNDGNCILREVDVAHPAAKSLIELSRSQDEEVGDGTTSVVILSGELLSVAETFLRQNIHPTIIVNCYMNALDSSLKFLEEISIDIDVNSESDLLKAIDSCLSTKFVNRYNKIVSKLALEATRCVKMDNLMGRKEIDIKRYAKVEKIPGGDITDSYVLKGVMINKDITHPKMRRYIKNPRILLLDCTLEYKKAESQTNVEILDEKTWNELLLQEEIEVKKMCEYIIDSKCDIVITEKGVSDLAQHFLVKKNISVIRRVRKTDLNRLERISGATIVNRCEEIVEGDIGTKCGLFEIKKIGDDYYSFFVECKDPHACTILLRGSTKDVLNEIERNLHDGMNVAKNILMEGKLLYGGGCTEIRVGQYLIKEAAKFNDSRKSITEAVASALEIIPKILAQNSGVNVVKTMNELRIKHEQEGGQEFGIDGITGDIIKVTTKNIWDLLSVKKQIYKSAIEAASMILRIDDVVSGVGKDEKVQKTIKNEF
B11: 60S acidic ribosomal protein P0 (protein, UniProt Q8II61 1-316)
chain: MAKLSKQQKKQMYIEKLSSLIQQYSKILIVHVDNVGSNQMASVRKSLRGKATILMGKNTRIRTALKKNLQAVPQIEKLLPLVKLNMGFVFCKDDLSEIRNIILDNKSPAPARLGVIAPIDVFIPPGPTGMDPSHTSFFQSLGISTKIVKGQIEIQEHVHLIKQGEKVTASSATLLQKFNMKPFSYGVDVRTVYDDGVIYDAKVLDITDEDILEKFSKGVSNVAALSRATGVITEASYPHVFVEAFKNIVALIIDSDYTFPLMENIKKMVENPEAFAAVAAPASAAKADEPKKEEAKKVEEEEEEEEDGFMGFGMFD
B12: 14-3-3 protein (protein, UniProt C0H4V6 1-262)
chain: MATSEELKQLRCDCTYRSKLAEQAERYDEMADAMRTLVEQCVNNDKDELTVEERNLLSVAYKNAVGARRASWRIISSVEQKEMSKANVHNKNVAATYRKKVEEELNNICQDILNLLTKKLIPNTSESESKVFYYKMKGDYYRYISEFSCDEGKKEASNCAQEAYQKATDIAENELPSTHPIRLGLALNYSVFFYEILNQPHQACEMAKRAFDDAITEFDNVSEDSYKDSTLIMQLLRDNLTLWTSDLQGDQTEEKSKDEGLE

No constants are given. Whether binding was seen depends on the method and setting. Binding seen in cells or lysates may run through a third protein. Here binding means that the protein was enriched with, or labelled near, the bait; the list need not be complete. Sequences can lack the tags named with a protein.

The target of the assay is T1, GFP::PfK13 (Plasmodium falciparum Kelch 13 protein, N-terminally tagged with 2xFKBP-GFP-2xFKBP) (Plasmodium falciparum). The experiment in a line: affinity purification with mass spectrometry; GFP-Trap beads incubated with lysate of asexual blood-stage GFP::PfK13 parasites (30 mM Tris pH 7.5, 150 mM NaCl, 0.5 mM EDTA, 0.5% NP-40) for 4 h or overnight at 4°C; 3D7 parasites as control; LC-MS/MS; proteins common to three biological replicates, FDR 1%.
As to B1, the binding result is “binds”.

For the molecule B2, the binding entry was “binds”.

Take B3: the binding result is listed as “binds”.

For the molecule B4, the binding result is “binds”.

For the molecule B5, the binding entry is listed as “binds”.

As to B6, the binding entry is on record as “binds”.

Regarding B7, the binding result is “binds”.

On to B8, for which the binding result was “binds”.

For the molecule B9, the binding result is recorded as “binds”.

For the molecule B10, the binding entry was “binds”.

Consider B11, for which the binding entry was “binds”.

With B12, the binding entry is recorded as “binds”.
